Results are given in words; binding and its absence hold for the method and conditions named. Binding seen in cells or lysates may run through a third protein. Binding can be weak; no strength is given. For part of these data: Sequences can lack the tags named with a protein.
Legend:
[1] = target: T1, CSRNP3-Flag (UniProt Q8WYN3); assay: co-IP; semi-endogenous: IP with anti-Flag in PC-9 cells overexpressing CSRNP3-Flag or CSRNP3mut-Flag, endogenous PP1α
T1 sequence: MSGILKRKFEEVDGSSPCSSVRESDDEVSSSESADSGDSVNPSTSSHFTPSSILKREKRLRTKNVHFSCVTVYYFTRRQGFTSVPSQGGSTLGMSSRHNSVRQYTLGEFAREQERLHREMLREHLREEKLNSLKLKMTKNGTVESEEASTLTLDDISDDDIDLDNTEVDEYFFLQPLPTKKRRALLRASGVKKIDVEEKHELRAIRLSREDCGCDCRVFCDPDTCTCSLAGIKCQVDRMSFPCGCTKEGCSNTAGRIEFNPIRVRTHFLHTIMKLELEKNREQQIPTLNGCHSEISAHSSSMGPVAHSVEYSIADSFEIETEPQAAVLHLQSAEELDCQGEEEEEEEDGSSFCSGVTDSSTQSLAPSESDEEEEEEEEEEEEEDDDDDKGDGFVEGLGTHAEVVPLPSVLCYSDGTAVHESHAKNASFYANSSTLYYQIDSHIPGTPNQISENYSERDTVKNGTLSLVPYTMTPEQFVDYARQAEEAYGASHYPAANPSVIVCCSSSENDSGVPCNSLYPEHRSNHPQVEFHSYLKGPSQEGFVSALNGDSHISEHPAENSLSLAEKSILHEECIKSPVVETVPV

[2] = target: serine/threonine protein phosphatase 1 catalytic subunit α (PP1α), endogenous (human (endogenous in PC-9 and HCC827)); assay: co-IP; endogenous proteins, IP with anti-PP1α in PC-9 or HCC827 cells cultured with rCSF2 (100 ng/mL)
[3] = target: serine/threonine protein phosphatase 1 catalytic subunit α (PP1α), endogenous (human (endogenous in PC-9 and HCC827)); assay: proximity ligation; PLA of endogenous CSRNP3 and PP1α in cells

Molecule | binding [1] | binding [2] | binding [3]
serine/threonine protein phosphatase 1 catalytic subunit α (PP1α), endogenous (human (endogenous in PC-9 and HCC827)) (enzyme) | binds | – | –
cysteine/serine-rich nuclear protein 3 (CSRNP3), endogenous (protein, UniProt Q8WYN3 1-585) MSGILKRKFEEVDGSSPCSSVRESDDEVSSSESADSGDSVNPSTSSHFTPSSILKREKRLRTKNVHFSCVTVYYFTRRQGFTSVPSQGGSTLGMSSRHNSVRQYTLGEFAREQERLHREMLREHLREEKLNSLKLKMTKNGTVESEEASTLTLDDISDDDIDLDNTEVDEYFFLQPLPTKKRRALLRASGVKKIDVEEKHELRAIRLSREDCGCDCRVFCDPDTCTCSLAGIKCQVDRMSFPCGCTKEGCSNTAGRIEFNPIRVRTHFLHTIMKLELEKNREQQIPTLNGCHSEISAHSSSMGPVAHSVEYSIADSFEIETEPQAAVLHLQSAEELDCQGEEEEEEEDGSSFCSGVTDSSTQSLAPSESDEEEEEEEEEEEEEDDDDDKGDGFVEGLGTHAEVVPLPSVLCYSDGTAVHESHAKNASFYANSSTLYYQIDSHIPGTPNQISENYSERDTVKNGTLSLVPYTMTPEQFVDYARQAEEAYGASHYPAANPSVIVCCSSSENDSGVPCNSLYPEHRSNHPQVEFHSYLKGPSQEGFVSALNGDSHISEHPAENSLSLAEKSILHEECIKSPVVETVPV | – | binds | binds

— article PMC11260172
